Data set [1] in a line: Evaluation of discharge performance: ink jet nozzle ejection after standing time.
Data set [2] in a line: Evaluation of curing properties (sensitivity evaluation): rubbing of the UV-cured printed image. Also noted: key: A: The image on the printed surface was not separated.; B: The image on the printed surface was slightly separated.; C: The image on the printed surface was separated at a practically unacceptable level.
Setting [3] is: aqueous magenta ink: initiator 5 mass %, N-[Tris(3-acrylamidopropoxymethyl)methyl]acrylamide 10 mass %, N,N′-Methylenebis(acrylamide) 10 mass %.
Setting [4] is: aqueous magenta ink: initiator 5 mass %, N-[Tris(3-acrylamidopropoxymethyl)methyl]acrylamide 10 mass %, N,N′-Methylenebis(acrylamide) 10 mass %, UV 600 mJ/cm^2.
Where [5] appears, read: Example 31: initiator 0.1 part by mass, N-[Tris(3-acrylamidopropoxymethyl)methyl]acrylamide 10, N,N′-Methylenebis(acrylamide) 10.
Setting [6] is: Example 32: initiator 1 part by mass, N-[Tris(3-acrylamidopropoxymethyl)methyl]acrylamide 10, N,N′-Methylenebis(acrylamide) 10.
The mark [7] stands for this setting: Example 33: initiator 3 part by mass, N-[Tris(3-acrylamidopropoxymethyl)methyl]acrylamide 10, N,N′-Methylenebis(acrylamide) 10.
[8] abbreviates: Example 34: initiator 10 part by mass, N-[Tris(3-acrylamidopropoxymethyl)methyl]acrylamide 10, N,N′-Methylenebis(acrylamide) 10.
Where [9] appears, read: Example 35: initiator 5 part by mass, N-[Tris(3-acrylamidopropoxymethyl)methyl]acrylamide 3, N,N′-Methylenebis(acrylamide) 3.
[10] abbreviates: Example 36: initiator 5 part by mass, N-[Tris(3-acrylamidopropoxymethyl)methyl]acrylamide 5, N,N′-Methylenebis(acrylamide) 5.
The mark [11] stands for this setting: Example 37: initiator 5 part by mass, N-[Tris(3-acrylaminopropoxymethyl)methyl]acrylamide 20, N,N′-Methylenebis(acrylamide) 20.
Setting [12] is: Examples 38 to 40: initiator 5 part by mass, Blemmer ADE400A 10, acryloylmorpholine 10.

Some compounds share one wording; it may come from a single statement.

Turning to `Cc1cc(C)c(C(=O)P(=O)(c2ccccc2)c2ccccc2)c(C)c1C(=O)COC(=O)CCC(=O)[O-].[Na+]` [Compound A-17], the Discharge performance result in data set [1] (setting [3]) is “A (At a standing time of 30 minutes or longer and shorter than 45 minutes, some nozzles cannot eject droplets.)”. Besides, the Sensitivity entry in data set [2] (setting [4]) is “A”.

On to `C=CC(=O)[O-].Cc1cc(C)c(C(=O)P(=O)(c2ccccc2)c2ccccc2)c(C)c1C(=O)C[N+](C)(C)C` [Compound A-7], for which the Discharge performance entry in data set [1] (setting [3]) was “A (At a standing time of 30 minutes or longer and shorter than 45 minutes, some nozzles cannot eject droplets.)”. The Sensitivity entry in data set [2] (setting [4]) is recorded as “A”.

Turning to `Cc1cc(C)c(C(=O)P(=O)(c2ccccc2)c2ccccc2)c(C)c1C(=O)COCCS(=O)(=O)[O-].[Na+]` [Compound A-11], in data set [1] (setting [3]), the Discharge performance entry is “A (At a standing time of 30 minutes or longer and shorter than 45 minutes, some nozzles cannot eject droplets.)”. The Sensitivity entry in data set [2] (setting [4]) is reported as “A”.

Consider `Cc1cc(C)c(C(=O)P(=O)(c2ccccc2)c2ccccc2)c(C)c1C(=O)C[N+](C)(C)Cc1ccccc1.[I-]` [Compound A-10], for which the Discharge performance result in data set [1] (setting [3]) was “A (At a standing time of 30 minutes or longer and shorter than 45 minutes, some nozzles cannot eject droplets.)”. Besides, the Sensitivity entry in data set [2] (setting [4]) is “A”.

Consider `CC[N+](CC)(CC)CC(=O)c1c(C)cc(C)c(C(=O)P(=O)(C(=O)c2c(C)cc(C)c(C(=O)C[N+](CC)(CC)CC)c2C)c2ccccc2)c1C.[Cl-].[Cl-]` [Compound A-23], for which the Discharge performance entry in data set [1] (setting [3]) was “A (At a standing time of 30 minutes or longer and shorter than 45 minutes, some nozzles cannot eject droplets.)”. Moreover, the Sensitivity result in data set [2] (setting [4]) is on record as “A”.

Take `CC[N+](CC)(CC)CC(=O)c1c(C)cc(C)c(C(=O)P(=O)(c2ccccc2)c2ccccc2)c1C.[Cl-]` [Compound A-1]: the Discharge performance result in data set [1] (setting [5]) is “A (At a standing time of 30 minutes or longer and shorter than 45 minutes, some nozzles cannot eject droplets.)”; in data set [1] (setting [6]), “A (At a standing time of 30 minutes or longer and shorter than 45 minutes, some nozzles cannot eject droplets.)”; in data set [1] (setting [7]), “A (At a standing time of 30 minutes or longer and shorter than 45 minutes, some nozzles cannot eject droplets.)”; in data set [1] (setting [8]), “A (At a standing time of 30 minutes or longer and shorter than 45 minutes, some nozzles cannot eject droplets.)”; in data set [1] (setting [9]), “A (At a standing time of 30 minutes or longer and shorter than 45 minutes, some nozzles cannot eject droplets.)”; in data set [1] (setting [10]) it was “A (At a standing time of 30 minutes or longer and shorter than 45 minutes, some nozzles cannot eject droplets.)”. Besides, the Discharge performance entry in data set [1] (setting [11]) is “B (At a standing time of 20 minutes or longer and shorter than 30 minutes, some nozzles cannot eject droplets.)”; in data set [1] (setting [12]) it was “A (At a standing time of 30 minutes or longer and shorter than 45 minutes, some nozzles cannot eject droplets.)”; in data set [1] (setting [3]) it was “A (At a standing time of 30 minutes or longer and shorter than 45 minutes, some nozzles cannot eject droplets.)”. Besides, the Sensitivity result was “B” in data set [2] (setting [5]); “B” in data set [2] (setting [6]); “A” in data set [2] (setting [7]); “A” in data set [2] (setting [8]); “B” in data set [2] (setting [9]); “A” in data set [2] (setting [10]). The Sensitivity result in data set [2] (setting [11]), in data set [2] (setting [12]) and in data set [2] (setting [4]) was “A” in each case.

`CC[N+](CC)(CC)CC(=O)c1c(C)cc(C)c(C(=O)P(=O)(C(=O)c2c(C)cc(C)c(C(=O)C[N+](CC)(CC)CC)c2C)c2ccccc2)c1C.[I-].[I-]` [Compound A-25]: the Discharge performance result in data set [1] (setting [3]) was “A (At a standing time of 30 minutes or longer and shorter than 45 minutes, some nozzles cannot eject droplets.)”. Moreover, the Sensitivity result in data set [2] (setting [4]) is “A”.

As for `Cc1cc(C)c(C(=O)P(=O)(c2ccccc2)c2ccccc2)c(C)c1C(=O)COC(=O)CCC(=O)[O-].[K+]` [Compound A-18], in data set [1] (setting [3]), the Discharge performance result is “A (At a standing time of 30 minutes or longer and shorter than 45 minutes, some nozzles cannot eject droplets.)”. For the same molecule, the Sensitivity entry in data set [2] (setting [4]) was “A”.

For `Cc1cc(C)c(C(=O)P(=O)(c2ccccc2)c2ccccc2)c(C)c1C(=O)C[N+](C)(C)Cc1ccccc1.[Cl-]` [Compound A-8], the Discharge performance result in data set [1] (setting [3]) was “A (At a standing time of 30 minutes or longer and shorter than 45 minutes, some nozzles cannot eject droplets.)”. Moreover, the Sensitivity entry in data set [2] (setting [4]) is listed as “A”.

As to `CC[N+](CC)(CC)CC(=O)c1c(C)cc(C)c(C(=O)P(=O)(c2ccccc2)c2ccccc2)c1C.[I-]` [Compound A-3], the Discharge performance entry is “A (At a standing time of 30 minutes or longer and shorter than 45 minutes, some nozzles cannot eject droplets.)” in data set [1] (setting [12]); “A (At a standing time of 30 minutes or longer and shorter than 45 minutes, some nozzles cannot eject droplets.)” in data set [1] (setting [3]). Moreover, the Sensitivity result in data set [2] (setting [12]) and in data set [2] (setting [4]) was “A” throughout.

As to `CC(C)(O)C(=O)c1ccc(OCCO)cc1` [IRGACURE 2959, reference compound], the Discharge performance entry in data set [1] (setting [3]) was “A (At a standing time of 30 minutes or longer and shorter than 45 minutes, some nozzles cannot eject droplets.)”. In addition, the Sensitivity entry in data set [2] (setting [4]) is “C”.

With `Cc1cc(C)c(C(=O)P(=O)(c2ccccc2)c2ccccc2)c(C)c1C(=O)COCCCS(=O)(=O)[O-].[K+]` [Compound A-14], the Discharge performance entry in data set [1] (setting [3]) is “A (At a standing time of 30 minutes or longer and shorter than 45 minutes, some nozzles cannot eject droplets.)”. Also, the Sensitivity entry in data set [2] (setting [4]) is “A”.

As to `Cc1cc(C)c(C(=O)P(=O)(c2ccccc2)c2ccccc2)c(C)c1C(=O)COCCCS(=O)(=O)[O-].[Na+]` [Compound A-13], the Discharge performance entry in data set [1] (setting [3]) was “A (At a standing time of 30 minutes or longer and shorter than 45 minutes, some nozzles cannot eject droplets.)”. The Sensitivity result in data set [2] (setting [4]) is on record as “A”.

On to `Cc1cc(C)c(C(=O)P(=O)(c2ccccc2)c2ccccc2)c(C)c1COCC(=O)O` [Comparative compound 1, reference compound], for which the Discharge performance result in data set [1] (setting [3]) is recorded as “C (At a standing time of shorter than 20 minutes, some nozzles cannot eject droplets.)”. In addition, the Sensitivity result in data set [2] (setting [4]) was “B”.

Turning to `Cc1cc(C)c(C(=O)P(=O)(c2ccccc2)c2ccccc2)c(C)c1C(=O)C[N+](C)(C)Cc1ccccc1.[Br-]` [Compound A-9], the Discharge performance entry in data set [1] (setting [3]) was “A (At a standing time of 30 minutes or longer and shorter than 45 minutes, some nozzles cannot eject droplets.)”. The Sensitivity entry in data set [2] (setting [4]) is “A”.

Source of the values: patent US20180362558A1, “AQUEOUS CURABLE COMPOSITION AND WATER-SOLUBLE PHOTOPOLYMERIZATION INITIATOR” (FUJIFILM CORPORATION, priority 2016, published 2018).
